Experimental data from US20130345164A1, “TREATMENTS FOR CELLULAR PROLIFERATIVE DISORDERS AND IDENTIFICATION THEREOF” (UNIVERSITY OF MEDICINE AND DENTISTRY OF NEW JERSEY, priority 2010, published 2013).
Some results were stated once for a whole list of compounds, not compound by compound. At least one compound was matched to its structure with a doubt left.

System: murine fibroblast cell line 3T3 (p53 wild type control)
Assay: Growth inhibition assay on isogenic murine fibroblast lines (96-well MTS)
Format: cell-based
Conditions: p53 wild type cells
Experimental: None of these compounds have been previously reported for their selective activity in cells with a mutant p53. To provide further evidence for their specificity, growth inhibition assays were performed on isogenic cell lines. Previously developed murine fibroblast cell line (10)3 (p53 null) and 10(3) with transfection of cytomegalovirus-human mutant p53 constructs (273, 248 and 175) (Dittmer, D., et al., Nature Genetics, 1993. 4(1): p. 42-6) were used as cases, while the murine fibroblast cell line 3T3 was used as a p53 wild type control.
The compounds were validated using several different cell line systems. The first system used was a mouse embryonic fibroblast (MEF) system in which a p53 null MEF line, 10(3), was used as a parental line from which several stable CMV-mutant p53 transfectants were derived. The p53 mutations investigated were the “hot spot” mutants 175, 248, and 273. NIH3T3 fibroblasts were used as a p53 wild type control.

C/C(=N\NC(=S)N1CCC1)c1ccccn1 [NSC319726]
IC50: > 1000 nM
